Source: paper PMC3351477
Results are given in words; binding and its absence hold for the method and conditions named. In cells and extracts the contact can be indirect. Binding can be weak; no strength is given. Tags and fused reporters may be left off the sequences shown.

Assays:
[1] = target: T1, full-length V5-tagged mouse Tyro3 (mouse) (UniProt P55144); experiment: co-IP; Rat2/T3V5 cells activated with 350 ng/ml Gas6 for 10 min; detergent extracts normalized and divided in two; IP of Tyro3 with anti-FN2 Tyro3 antibodies or of Axl with mouse monoclonal anti-Axl antibodies, overnight at 4°C; 6% SDS-PAGE; blotted with anti-Tyro3 serum 5424 or rabbit anti-Axl
T1 sequence (chain, N-linked glycosylated forms (doublet of about 125-120 kDa)): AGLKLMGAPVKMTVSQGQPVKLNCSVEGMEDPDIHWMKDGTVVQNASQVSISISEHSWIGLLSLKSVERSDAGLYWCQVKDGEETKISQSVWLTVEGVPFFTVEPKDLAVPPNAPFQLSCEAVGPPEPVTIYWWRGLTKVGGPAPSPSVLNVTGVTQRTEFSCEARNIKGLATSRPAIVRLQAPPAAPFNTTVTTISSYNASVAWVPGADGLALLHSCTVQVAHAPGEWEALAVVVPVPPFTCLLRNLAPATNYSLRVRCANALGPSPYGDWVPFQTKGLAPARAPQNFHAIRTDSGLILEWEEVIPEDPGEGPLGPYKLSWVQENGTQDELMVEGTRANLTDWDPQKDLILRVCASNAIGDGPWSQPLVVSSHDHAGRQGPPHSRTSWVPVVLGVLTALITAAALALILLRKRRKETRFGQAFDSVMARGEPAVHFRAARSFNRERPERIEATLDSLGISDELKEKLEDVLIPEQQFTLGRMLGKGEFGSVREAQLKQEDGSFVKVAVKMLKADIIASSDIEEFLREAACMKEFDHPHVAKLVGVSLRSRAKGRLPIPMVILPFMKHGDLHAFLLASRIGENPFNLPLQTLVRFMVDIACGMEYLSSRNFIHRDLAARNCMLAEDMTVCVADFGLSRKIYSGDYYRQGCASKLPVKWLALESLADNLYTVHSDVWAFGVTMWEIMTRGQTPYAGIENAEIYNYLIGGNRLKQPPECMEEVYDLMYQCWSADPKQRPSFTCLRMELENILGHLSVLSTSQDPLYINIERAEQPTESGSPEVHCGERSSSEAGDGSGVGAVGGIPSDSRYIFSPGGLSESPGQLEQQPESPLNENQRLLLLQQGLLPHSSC

[2] = target: Axl (endogenous in Rat2 cells) (rat (endogenous in Rat2)); experiment: as above

| Molecule | binding [1] | binding [2] |
| --- | --- | --- |
| Axl (endogenous in Rat2 cells) (receptor) | binds | – |
| full-length V5-tagged mouse Tyro3 (receptor, UniProt P55144 31-880, N-linked glycosylated forms (doublet of about 125-120 kDa)) AGLKLMGAPVKMTVSQGQPVKLNCSVEGMEDPDIHWMKDGTVVQNASQVSISISEHSWIGLLSLKSVERSDAGLYWCQVKDGEETKISQSVWLTVEGVPFFTVEPKDLAVPPNAPFQLSCEAVGPPEPVTIYWWRGLTKVGGPAPSPSVLNVTGVTQRTEFSCEARNIKGLATSRPAIVRLQAPPAAPFNTTVTTISSYNASVAWVPGADGLALLHSCTVQVAHAPGEWEALAVVVPVPPFTCLLRNLAPATNYSLRVRCANALGPSPYGDWVPFQTKGLAPARAPQNFHAIRTDSGLILEWEEVIPEDPGEGPLGPYKLSWVQENGTQDELMVEGTRANLTDWDPQKDLILRVCASNAIGDGPWSQPLVVSSHDHAGRQGPPHSRTSWVPVVLGVLTALITAAALALILLRKRRKETRFGQAFDSVMARGEPAVHFRAARSFNRERPERIEATLDSLGISDELKEKLEDVLIPEQQFTLGRMLGKGEFGSVREAQLKQEDGSFVKVAVKMLKADIIASSDIEEFLREAACMKEFDHPHVAKLVGVSLRSRAKGRLPIPMVILPFMKHGDLHAFLLASRIGENPFNLPLQTLVRFMVDIACGMEYLSSRNFIHRDLAARNCMLAEDMTVCVADFGLSRKIYSGDYYRQGCASKLPVKWLALESLADNLYTVHSDVWAFGVTMWEIMTRGQTPYAGIENAEIYNYLIGGNRLKQPPECMEEVYDLMYQCWSADPKQRPSFTCLRMELENILGHLSVLSTSQDPLYINIERAEQPTESGSPEVHCGERSSSEAGDGSGVGAVGGIPSDSRYIFSPGGLSESPGQLEQQPESPLNENQRLLLLQQGLLPHSSC | – | binds |
